Values of other authors, collected in US5538712A, “Cyclopentadienylcarbonyl 99MTC complexes, process for their production as well as their use in diagnostics” (Institut Fur Diagnostikforschung GmbH/an der Freien …, priority 1990, dated 1996).
For at least one compound, name, drawing or mass did not settle the structure.

Settings: rat; 15 minutes after HM-PAO administration; cited from earlier work

For `C/C(=N\O)C(C)NCC(C)(C)CNC(C)/C(C)=N/O` (stereo not shown) [HM-PAO, hexamethyl-propylenamine oxime], the brain/blood quotient is given as 1.5:1.
